# Laboratory results as given in patent US4461761A, “Oligomers of compounds of the muramyl-peptide type and medicaments containing them” (priority 1978, dated 1984).
# Part of at least one peptide drawing is inferred or uncertain, most often the ends.
# Tests used:
# [1] = tested on: Klebsiella pneumoniae; test: Anti-Klebsiella pneumoniae activity in the adult mouse; format: in vivo; conditions: infection i.m. 1.5 × 10^4, treatment -24 h, i.v., 100 μg
# Protocol: An experimental procedure was studied by CHEDID L. et coll. in "Proc. Natl. Acad. Sci. USA," 1977, 74: 2089, which permits the stimulating effect or not to be observed of substances studied with regard to immune defenses according as they protect or not the mice to which they are injected, the mice being inoculated by a dose of Klebsiella pneumoniae which results in the death of almost all of the controls.
# The testing procedure is described in the article CHEDID L. et coll., Proc. Natl. Acad. Sci. USA, 74:2089.
# It was shown that a dose of about 10^4 Klebsiella pneumoniae, injected by the intramuscular route in mice, results in the gradual death of a considerable part, if not all, of the animals in the week following the inoculation. After 8 days, the survival of the animals was definitely achieved.
# The survival of groups of inoculated mice under the above conditions and treated by means of the products according to the invention was followed.
# For these tests, hybrid mice (C57B1/6×AKR) FI bred at the PASTEUR INSTITUTE, from strains derived from the CNRS breeding station at ORLEANS, were used. […]
# Various treatment conditions and tests have been studied. […] In particular, the protective properties of the products have been determined in the case of an injection of Klebsiella pneumoniae by the intravenous route, which corresponds to a severe infection. […]
# [2] = tested on: ovalbumin; test: Adjuvant character in emulsion: serum antibodies specific for ovalbumin; format: in vivo, Hartley guinea pigs; conditions: emulsion with 1 mg ovalbumin, intradermal; product 50 μg in FIA; day 21; μg nitrogen precipitatable by antigen per ml serum
# Protocol: (§1) The tests were carried out on batches of 6 male Hartley guinea pigs of 350 g. The administration was done by intradermal injection into the plantar pad of each of the rear paws. Ovalbumin (constituting the antigen) in the amount of 1 mg is prepared in 0.1 ml of an emulsion of saline isotonic solution, in an oily phase constituted either by the Freund incomplete adjuvant (FIA) or by the complete adjuvant (FCA) formed by the FIA to which is added 0.1 mg of whole Mycobacterium smegmatis cells. The compound according to the invention was administered in the amount of 0.05 mg added in the emulsion containing the FIA.
# Twenty-one days after the injection, the animals were bled. On the collected serum, the content of specific antibodies of the ovalbumin was measured by precipitation of the antibody-antigen complex in the equivalence zone. The amount of protein nitrogen contained in the precipitate was estimated by the Folin method. These values express the amount, in micrograms, of nitrogen precipitatable by the antigen, per milliliter of the serum.
# [3] = tested on: bovine serum albumin (BSA); test: Adjuvant character in the aqueous phase (anti-BSA antibody titer, passive hemagglutination); format: in vivo, Swiss mice; conditions: 100 μg adjuvant s.c. with 0.5 mg BSA in isotonic saline; booster day 30; six days after booster; maximum serum dilution agglutinating
# Protocol: Groups of 8 Swiss mice aged two months received, by sub-cutaneous injection (SC), 0.5 mg of antigen constituted by bovine serum albumin (BSA) with 0.1 mg or without the tested substance in an isotonic saline solution. This high dose of antigen, because it is situated at the limit of the paralyzing dose with respect to the immunitary response, results, for this reason, in a weak or zero response to the antigen only in the controls: It constitutes therefore a severe criterion to establish the activity of an adjuvant substance. Thirty days later, the mice received, by the same administrative route, a booster containing 0.1 mg of the same antigen.
# The antibody level was determined, six days after the booster, by passive hemagglutination using sheep's red blood corpuscles treated with formalin and covered with the antigen studied according to the method described by A. A. HIRATA and M. W. BRANDISS (J. Immunol., 100, 641-648, 1968).
# The antibody titer, represented by the maximum serum dilution agglutinating a given amount of sheep corpuscles, reaches a maximum at the 36th day. The results obtained for various products according to the invention are shown in Table I. By way of comparison, the results obtained with MDP are indicated, on the one hand, and for PAP-MDP, on the other hand.
# [4] = tested on: ovalbumin; test: Adjuvant character in emulsion: delayed hypersensitivity cutaneous test; format: in vivo, Hartley guinea pigs; conditions: emulsion with 1 mg ovalbumin, intradermal; product 50 μg in FIA; challenge day 18, read 48 hours later
# Protocol: as §1
# Eighteen days after this immunization, possible delayed hypersensitivity reactions to the antigen were sought by injecting by the intradermal route 0.01 mg of ovalbumin in the side of the animals, and 48 hours later, the reaction of the point of injection was observed. The diameter in millimeters of the reaction thus-caused was measured.
smiles,measurement,setting,value
"CC(=O)N[C@H]1C(O)O[C@H](CO)[C@@H](O)[C@@H]1O[C@H](C)C(=O)N[C@@H](C)C(=O)N[C@H](CCC(=O)N[C@@H](CCCCNC(=O)[C@H](CCCCNC(=O)[C@H](CCCCN)NC(=O)CC[C@@H](NC(=O)[C@H](C)NC(=O)[C@@H](C)O[C@H]1[C@H](O)[C@@H](CO)OC(O)[C@@H]1NC(C)=O)C(N)=O)NC(=O)CC[C@@H](NC(=O)[C@H](C)NC(=O)[C@@H](C)O[C@H]1[C@H](O)[C@@H](CO)OC(O)[C@@H]1NC(C)=O)C(N)=O)C(N)=O)C(N)=O (stereo partly drawn) [H(N--α-MDP-Lys)3 NH2, N^α -N-acetyl-muramyl-L-alanyl-D-isoglutamine-N^ε [N^α -N-acetyl-muramyl-L-alanyl-D-isoglutamine-N^ε (N^α -N-acetyl-muramyl-L-alanyl-D-isoglutamine-lysyl)lysyl]-lysyl-amide]",% Protection,[1],58%
same,Serum antibodies,[2],5500 µg/mL
same,Antibody titer,[3],200
same,Cutaneous test diameter in mm,[4],16 mm
